Results: patent US9309314B2 (AGENCY FOR SCIENCE, TECHNOLOGY AND RESEARCH (A*STAR), priority 2013, dated 2016)
Where a sequence shows no end group, the ends are not given.

Assay: peptide synthesis
Conditions: whole synthesis, one disulfide bridge, sequence written open

With QRPVNLTMRRKLRKHNCLQRRCMPLHSRVPFP the “purity (crude or final not stated)” value was 98%.
